Biological target: 72 kDa type IV collagenase (Homo sapiens, UniProt P08253)
Assay: Inhibition of matrix metalloprotease-2

Protein sequences, listed by entry. Tags and fused reporters are not part of them. Lines headed by an entry give the natural chain unless they say otherwise; changes in a name come on top.
UniProt P08253: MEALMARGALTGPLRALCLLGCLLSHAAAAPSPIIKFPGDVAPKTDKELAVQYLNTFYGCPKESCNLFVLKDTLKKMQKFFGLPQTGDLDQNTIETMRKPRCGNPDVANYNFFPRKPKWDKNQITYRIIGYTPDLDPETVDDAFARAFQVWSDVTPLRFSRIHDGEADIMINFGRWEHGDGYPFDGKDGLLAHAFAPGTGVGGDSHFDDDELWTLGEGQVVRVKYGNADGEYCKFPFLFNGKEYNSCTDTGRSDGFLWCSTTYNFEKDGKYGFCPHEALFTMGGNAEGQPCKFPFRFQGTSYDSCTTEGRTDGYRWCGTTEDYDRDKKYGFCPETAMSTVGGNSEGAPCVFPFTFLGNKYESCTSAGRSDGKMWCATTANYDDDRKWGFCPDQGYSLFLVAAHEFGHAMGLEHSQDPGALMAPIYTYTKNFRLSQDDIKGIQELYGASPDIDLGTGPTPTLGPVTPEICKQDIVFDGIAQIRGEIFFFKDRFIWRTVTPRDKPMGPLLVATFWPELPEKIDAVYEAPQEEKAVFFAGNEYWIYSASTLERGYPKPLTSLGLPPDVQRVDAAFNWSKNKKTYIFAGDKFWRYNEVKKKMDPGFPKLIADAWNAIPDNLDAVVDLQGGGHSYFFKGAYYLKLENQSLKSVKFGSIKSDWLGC

Q: How did the Ki turn out when `CNC(=O)[C@H](Cc1ccc(OC)cc1)NC(=O)[C@@H](CC(=O)NO)CC(C)C` was run?
A: < 1 nM

Reference: ChEMBL document CHEMBL1134623, “Design and synthesis of a series of (2R)-N(4)-hydroxy-2-(3-hydroxybenzyl)-N(1)- [(1S,2R)-2-hydroxy-2,3-dihydro-1H-inden-1-yl]butanediamide derivatives as potent, selective, and orally bioavailable aggrecanase inhibitors” (J Med Chem, 2001)
